From publication PMC12579238
Results are given in words; binding and its absence hold for the method and conditions named. Binding seen in cells or lysates may run through a third protein. A yes stands for co-enrichment or nearness to the bait. Other partners may have been found.

Protein sequences, listed by entry. Tags and fused reporters are not part of them.
UniProt Q9UKV8: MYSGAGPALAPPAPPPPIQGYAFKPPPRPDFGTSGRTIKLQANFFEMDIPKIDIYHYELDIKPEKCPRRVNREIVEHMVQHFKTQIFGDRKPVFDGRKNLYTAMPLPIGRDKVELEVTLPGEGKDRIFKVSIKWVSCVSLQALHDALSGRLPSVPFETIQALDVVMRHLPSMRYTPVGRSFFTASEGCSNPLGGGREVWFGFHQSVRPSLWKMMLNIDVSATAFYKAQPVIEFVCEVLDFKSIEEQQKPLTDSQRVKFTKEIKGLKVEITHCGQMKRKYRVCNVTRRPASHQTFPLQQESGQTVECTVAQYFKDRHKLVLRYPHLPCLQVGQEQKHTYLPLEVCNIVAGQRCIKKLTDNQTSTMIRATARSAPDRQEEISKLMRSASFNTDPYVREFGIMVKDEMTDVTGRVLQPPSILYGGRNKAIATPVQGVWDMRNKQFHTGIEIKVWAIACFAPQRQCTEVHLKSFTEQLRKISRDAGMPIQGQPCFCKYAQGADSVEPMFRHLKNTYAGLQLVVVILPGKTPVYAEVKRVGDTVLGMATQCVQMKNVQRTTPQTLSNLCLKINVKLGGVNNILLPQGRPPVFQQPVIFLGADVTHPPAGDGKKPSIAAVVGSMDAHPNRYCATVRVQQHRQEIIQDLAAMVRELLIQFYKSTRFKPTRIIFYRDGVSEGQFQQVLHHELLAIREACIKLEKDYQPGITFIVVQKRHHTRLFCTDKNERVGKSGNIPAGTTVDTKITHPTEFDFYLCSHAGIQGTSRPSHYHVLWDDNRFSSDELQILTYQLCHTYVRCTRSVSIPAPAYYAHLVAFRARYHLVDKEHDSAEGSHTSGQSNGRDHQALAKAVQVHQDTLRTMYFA
UniProt Q01484: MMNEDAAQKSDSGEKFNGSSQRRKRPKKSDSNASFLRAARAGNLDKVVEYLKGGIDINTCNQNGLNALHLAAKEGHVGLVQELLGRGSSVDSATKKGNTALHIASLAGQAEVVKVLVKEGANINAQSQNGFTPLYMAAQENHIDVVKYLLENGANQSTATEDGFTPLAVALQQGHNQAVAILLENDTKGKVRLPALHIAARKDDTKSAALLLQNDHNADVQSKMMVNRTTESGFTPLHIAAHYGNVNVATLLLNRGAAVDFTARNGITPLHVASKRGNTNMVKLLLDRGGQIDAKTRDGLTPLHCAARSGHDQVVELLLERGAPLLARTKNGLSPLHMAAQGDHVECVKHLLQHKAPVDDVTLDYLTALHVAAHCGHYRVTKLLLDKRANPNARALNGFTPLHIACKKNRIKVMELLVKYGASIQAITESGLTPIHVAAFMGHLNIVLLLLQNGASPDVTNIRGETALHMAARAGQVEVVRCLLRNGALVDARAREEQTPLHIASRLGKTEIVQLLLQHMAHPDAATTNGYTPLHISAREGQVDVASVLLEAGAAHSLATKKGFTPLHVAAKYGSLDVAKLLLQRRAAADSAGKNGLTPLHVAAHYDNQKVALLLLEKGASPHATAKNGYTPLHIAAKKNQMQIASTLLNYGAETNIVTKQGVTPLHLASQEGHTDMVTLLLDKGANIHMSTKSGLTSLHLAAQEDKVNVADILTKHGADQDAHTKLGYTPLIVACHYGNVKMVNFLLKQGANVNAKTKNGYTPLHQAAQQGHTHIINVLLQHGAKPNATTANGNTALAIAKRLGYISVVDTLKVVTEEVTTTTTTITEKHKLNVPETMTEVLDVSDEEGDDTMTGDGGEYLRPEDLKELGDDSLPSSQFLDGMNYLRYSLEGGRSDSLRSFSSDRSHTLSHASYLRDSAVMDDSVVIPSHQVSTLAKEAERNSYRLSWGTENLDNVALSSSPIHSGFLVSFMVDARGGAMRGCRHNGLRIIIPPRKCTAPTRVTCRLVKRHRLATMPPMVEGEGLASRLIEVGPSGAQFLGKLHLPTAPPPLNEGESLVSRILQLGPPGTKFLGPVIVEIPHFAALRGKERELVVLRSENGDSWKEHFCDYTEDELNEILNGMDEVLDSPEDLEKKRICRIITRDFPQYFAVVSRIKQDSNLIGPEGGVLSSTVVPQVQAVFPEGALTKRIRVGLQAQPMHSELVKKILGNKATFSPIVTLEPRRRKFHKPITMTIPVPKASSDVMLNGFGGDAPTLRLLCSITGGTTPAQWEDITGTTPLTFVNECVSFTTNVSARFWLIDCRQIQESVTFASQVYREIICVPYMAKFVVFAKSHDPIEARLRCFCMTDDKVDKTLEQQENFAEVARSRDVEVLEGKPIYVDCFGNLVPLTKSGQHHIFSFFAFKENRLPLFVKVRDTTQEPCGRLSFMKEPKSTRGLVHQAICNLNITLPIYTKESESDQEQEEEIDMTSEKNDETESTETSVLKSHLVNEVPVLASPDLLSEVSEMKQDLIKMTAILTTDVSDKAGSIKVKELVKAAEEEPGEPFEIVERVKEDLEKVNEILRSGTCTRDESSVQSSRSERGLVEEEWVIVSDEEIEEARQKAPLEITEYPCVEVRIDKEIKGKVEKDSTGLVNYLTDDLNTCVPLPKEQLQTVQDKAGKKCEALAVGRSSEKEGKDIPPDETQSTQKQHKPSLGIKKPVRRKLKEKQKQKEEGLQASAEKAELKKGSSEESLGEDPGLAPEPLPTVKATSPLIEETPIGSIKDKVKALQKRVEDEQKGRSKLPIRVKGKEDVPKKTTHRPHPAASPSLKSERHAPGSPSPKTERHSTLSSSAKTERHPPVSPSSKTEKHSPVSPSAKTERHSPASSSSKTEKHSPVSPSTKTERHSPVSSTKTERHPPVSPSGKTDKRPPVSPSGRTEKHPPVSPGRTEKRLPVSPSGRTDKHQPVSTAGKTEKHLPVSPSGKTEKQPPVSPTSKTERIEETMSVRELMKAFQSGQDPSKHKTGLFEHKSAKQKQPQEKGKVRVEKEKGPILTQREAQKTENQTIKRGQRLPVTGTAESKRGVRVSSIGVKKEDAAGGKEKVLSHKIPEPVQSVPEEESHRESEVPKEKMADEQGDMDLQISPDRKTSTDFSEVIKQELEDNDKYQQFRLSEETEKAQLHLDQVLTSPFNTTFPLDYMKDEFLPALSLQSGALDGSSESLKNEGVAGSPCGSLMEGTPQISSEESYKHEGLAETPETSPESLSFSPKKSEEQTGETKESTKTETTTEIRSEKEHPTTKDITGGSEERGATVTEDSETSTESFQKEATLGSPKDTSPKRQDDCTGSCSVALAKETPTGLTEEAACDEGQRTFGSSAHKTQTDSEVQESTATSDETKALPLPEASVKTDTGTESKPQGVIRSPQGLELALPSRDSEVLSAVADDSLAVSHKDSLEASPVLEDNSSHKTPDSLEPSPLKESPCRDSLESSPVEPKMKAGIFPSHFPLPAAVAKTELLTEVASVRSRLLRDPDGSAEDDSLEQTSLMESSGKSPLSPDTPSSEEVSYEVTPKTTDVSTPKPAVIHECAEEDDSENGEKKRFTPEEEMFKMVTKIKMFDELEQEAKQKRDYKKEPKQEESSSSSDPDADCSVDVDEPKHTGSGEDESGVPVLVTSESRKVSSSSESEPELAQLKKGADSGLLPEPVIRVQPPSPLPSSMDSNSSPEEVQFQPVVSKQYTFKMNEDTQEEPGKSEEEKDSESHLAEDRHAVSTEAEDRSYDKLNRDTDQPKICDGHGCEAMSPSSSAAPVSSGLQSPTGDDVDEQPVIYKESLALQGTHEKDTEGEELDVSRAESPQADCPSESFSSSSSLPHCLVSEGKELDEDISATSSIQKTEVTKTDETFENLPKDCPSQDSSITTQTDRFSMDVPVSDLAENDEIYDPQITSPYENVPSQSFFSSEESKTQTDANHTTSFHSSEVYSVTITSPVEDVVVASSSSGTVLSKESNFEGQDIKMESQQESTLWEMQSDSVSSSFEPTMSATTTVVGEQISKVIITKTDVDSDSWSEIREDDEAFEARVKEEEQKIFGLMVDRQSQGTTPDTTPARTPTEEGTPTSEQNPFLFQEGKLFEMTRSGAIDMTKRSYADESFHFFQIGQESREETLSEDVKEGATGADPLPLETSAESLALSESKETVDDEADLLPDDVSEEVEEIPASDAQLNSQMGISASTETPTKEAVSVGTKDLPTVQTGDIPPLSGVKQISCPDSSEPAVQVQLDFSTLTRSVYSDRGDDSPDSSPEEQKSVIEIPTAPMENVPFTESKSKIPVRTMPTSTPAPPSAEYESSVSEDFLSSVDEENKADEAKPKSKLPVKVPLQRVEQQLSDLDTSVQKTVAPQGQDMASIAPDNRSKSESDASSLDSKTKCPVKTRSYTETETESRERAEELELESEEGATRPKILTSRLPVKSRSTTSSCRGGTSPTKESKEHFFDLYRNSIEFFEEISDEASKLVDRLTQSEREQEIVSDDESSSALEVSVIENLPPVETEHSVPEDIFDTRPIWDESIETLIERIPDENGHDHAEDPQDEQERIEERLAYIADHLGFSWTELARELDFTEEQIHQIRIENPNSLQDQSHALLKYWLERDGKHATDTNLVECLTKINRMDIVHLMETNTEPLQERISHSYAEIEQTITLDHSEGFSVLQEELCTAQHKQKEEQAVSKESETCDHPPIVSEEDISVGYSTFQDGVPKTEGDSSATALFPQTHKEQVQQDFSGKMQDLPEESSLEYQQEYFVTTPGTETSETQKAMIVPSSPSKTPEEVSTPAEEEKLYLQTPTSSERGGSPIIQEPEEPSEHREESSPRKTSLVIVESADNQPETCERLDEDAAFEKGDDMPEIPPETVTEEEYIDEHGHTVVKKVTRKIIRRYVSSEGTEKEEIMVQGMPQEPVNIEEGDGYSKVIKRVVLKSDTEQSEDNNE
UniProt P68871: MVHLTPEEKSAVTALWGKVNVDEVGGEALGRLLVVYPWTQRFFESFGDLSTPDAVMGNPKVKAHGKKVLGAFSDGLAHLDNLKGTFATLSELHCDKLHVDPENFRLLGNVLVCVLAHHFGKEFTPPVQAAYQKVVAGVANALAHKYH
UniProt Q00341: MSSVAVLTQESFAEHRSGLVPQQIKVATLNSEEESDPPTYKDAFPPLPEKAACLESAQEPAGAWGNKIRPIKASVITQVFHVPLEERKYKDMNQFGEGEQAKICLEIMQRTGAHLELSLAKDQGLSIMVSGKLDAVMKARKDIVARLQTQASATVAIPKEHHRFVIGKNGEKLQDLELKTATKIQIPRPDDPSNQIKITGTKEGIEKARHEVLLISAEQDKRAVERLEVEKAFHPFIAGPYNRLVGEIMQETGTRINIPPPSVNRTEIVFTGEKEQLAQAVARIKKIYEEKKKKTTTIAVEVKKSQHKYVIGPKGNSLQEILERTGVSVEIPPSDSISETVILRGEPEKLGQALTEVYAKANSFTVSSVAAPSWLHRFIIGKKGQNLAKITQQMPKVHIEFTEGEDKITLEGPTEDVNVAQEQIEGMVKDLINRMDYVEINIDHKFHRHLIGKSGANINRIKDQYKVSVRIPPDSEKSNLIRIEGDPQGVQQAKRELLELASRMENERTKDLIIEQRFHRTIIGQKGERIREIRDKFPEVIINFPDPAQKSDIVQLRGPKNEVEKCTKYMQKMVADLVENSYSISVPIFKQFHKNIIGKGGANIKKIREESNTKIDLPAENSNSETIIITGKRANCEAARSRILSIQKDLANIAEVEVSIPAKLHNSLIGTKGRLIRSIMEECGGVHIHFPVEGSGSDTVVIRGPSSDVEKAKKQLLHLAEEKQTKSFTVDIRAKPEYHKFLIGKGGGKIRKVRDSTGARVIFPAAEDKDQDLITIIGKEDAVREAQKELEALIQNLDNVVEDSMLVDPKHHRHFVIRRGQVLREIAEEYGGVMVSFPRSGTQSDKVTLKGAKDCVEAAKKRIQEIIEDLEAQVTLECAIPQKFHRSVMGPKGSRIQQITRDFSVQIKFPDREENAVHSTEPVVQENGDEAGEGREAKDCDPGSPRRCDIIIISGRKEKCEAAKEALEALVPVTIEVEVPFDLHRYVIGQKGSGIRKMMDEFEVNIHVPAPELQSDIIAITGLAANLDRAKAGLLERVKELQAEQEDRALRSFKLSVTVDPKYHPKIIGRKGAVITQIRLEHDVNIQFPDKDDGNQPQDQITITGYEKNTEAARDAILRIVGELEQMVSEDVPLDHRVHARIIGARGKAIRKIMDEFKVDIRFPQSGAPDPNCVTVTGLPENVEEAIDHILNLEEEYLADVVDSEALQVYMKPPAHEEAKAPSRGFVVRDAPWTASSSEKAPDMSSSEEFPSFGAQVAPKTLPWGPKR
UniProt O15372: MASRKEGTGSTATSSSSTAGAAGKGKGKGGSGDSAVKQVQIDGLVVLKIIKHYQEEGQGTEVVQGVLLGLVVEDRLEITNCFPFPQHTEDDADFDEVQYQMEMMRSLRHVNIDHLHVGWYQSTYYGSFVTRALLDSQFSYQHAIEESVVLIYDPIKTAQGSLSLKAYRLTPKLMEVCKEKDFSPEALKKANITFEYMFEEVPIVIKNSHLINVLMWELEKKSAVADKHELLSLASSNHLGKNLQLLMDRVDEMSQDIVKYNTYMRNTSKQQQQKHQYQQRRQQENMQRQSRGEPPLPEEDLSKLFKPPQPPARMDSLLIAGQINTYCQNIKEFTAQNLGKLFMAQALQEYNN

Target: T1, CLN7 (human (endogenous in SH-SY5Y)) (UniProt Q8NHS3)
T1 sequence: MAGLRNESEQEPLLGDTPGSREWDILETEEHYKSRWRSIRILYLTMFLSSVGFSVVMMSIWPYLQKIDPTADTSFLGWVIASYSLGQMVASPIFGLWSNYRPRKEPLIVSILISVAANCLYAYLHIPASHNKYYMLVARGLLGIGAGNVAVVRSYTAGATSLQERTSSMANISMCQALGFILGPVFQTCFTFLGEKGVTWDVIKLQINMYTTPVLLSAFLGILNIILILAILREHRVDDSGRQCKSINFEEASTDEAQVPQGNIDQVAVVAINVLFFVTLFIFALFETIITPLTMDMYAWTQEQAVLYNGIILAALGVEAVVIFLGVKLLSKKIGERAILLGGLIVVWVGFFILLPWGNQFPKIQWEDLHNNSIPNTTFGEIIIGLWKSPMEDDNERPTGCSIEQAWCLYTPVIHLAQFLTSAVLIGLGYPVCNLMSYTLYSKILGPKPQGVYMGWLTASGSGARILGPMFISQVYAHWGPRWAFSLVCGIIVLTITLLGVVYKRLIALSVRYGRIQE
Test: affinity purification with mass spectrometry; endogenous CLN7 immunoprecipitated from 2.5 mg SH-SY5Y lysate with a polyclonal anti-CLN7 antibody raised against L9 (351-421aa, Proteintech) on G-sepharose beads; IgG as non-specific binding control; 4 independent replicates; cells under steady state culture conditions

Row | binding | Substance
1 | binds | AGO2 (from UniProt Q9UKV8 1-859)
2 | binds | AKAP9 (from UniProt Q99996 1-3907)
3 | binds | AKAP13 (from UniProt Q12802 1-2813)
4 | binds | ANK2 (from UniProt Q01484 1-3957)
5 | binds | ARFGEF2 (from UniProt Q9Y6D5 1-1785)
6 | binds | ARHGEF7 (from UniProt Q14155 1-803)
7 | binds | ASCC3 (from UniProt Q8N3C0 1-2202)
8 | binds | ATXN2 (from UniProt Q99700 1-1313)
9 | binds | CCDC85C (from UniProt A6NKD9 1-419)
10 | binds | CNOT3 (from UniProt O75175 1-753)
11 | binds | DCAF1 (from UniProt Q9Y4B6 1-1507)
12 | binds | DEPDC5 (from UniProt O75140 1-1603)
13 | binds | EIF3F (from UniProt O00303 1-357)
14 | binds | EIF3S1 (from UniProt O75822 1-258)
15 | binds | EIF3S8 (from UniProt Q99613 1-913)
16 | binds | EIF4G1 (from UniProt Q04637 1-1599)
17 | binds | EXOSC5 (from UniProt Q9NQT4 1-235)
18 | binds | FAM98A (from UniProt Q8NCA5 1-518)
19 | binds | FRYL (from UniProt O94915 1-3013)
20 | binds | FXR1 (from UniProt P51114 1-621)
21 | binds | G3BP1 (from UniProt Q13283 1-466)
22 | binds | H1FX (from UniProt Q92522 1-213)
23 | binds | HBB (from UniProt P68871 1-147)
24 | binds | HDLBP (from UniProt Q00341 1-1268)
25 | binds | HEATR1 (from UniProt Q9H583 1-2144)

Row | binding | Substance
26 | binds | HERC2 (from UniProt O95714 1-4834)
27 | binds | INTS2 (from UniProt Q9H0H0 1-1196)
28 | binds | INTS3 (from UniProt Q68E01 1-1043)
29 | binds | INTS5 (from UniProt Q6P9B9 1-1019)
30 | binds | INTS13 (from UniProt Q9NVM9 1-706)
31 | binds | KIF21A (from UniProt Q7Z4S6 1-1674)
32 | binds | LSM14B (from UniProt Q9BX40 1-385)
33 | binds | MAPRE2 (from UniProt Q15555 1-327)
34 | binds | MSH6 (from UniProt P52701 1-1360)
35 | binds | MYCBP2 (from UniProt O75592 1-4678)
36 | binds | MYO5A (from UniProt Q9Y4I1 1-1855)
37 | binds | NPM1 (from UniProt P06748 1-294)
38 | binds | PDE3A (from UniProt Q14432 1-1141)
39 | binds | PIK3R4 (from UniProt Q99570 1-1358)
40 | binds | PRKAR2B (from UniProt P31323 1-418)
41 | binds | RAD50 (from UniProt Q92878 1-1312)
42 | binds | RNF213 (from UniProt Q63HN8 1-5207)
43 | binds | SIPA1L3 (from UniProt O60292 1-1781)
44 | binds | SNRPD3 (from UniProt P62318 1-126)
45 | binds | SZT2 (from UniProt Q5T011 1-3432)
46 | binds | TJP1 (from UniProt Q07157 1-1748)
47 | binds | TRRAP (from UniProt Q9Y4A5 1-3859)
48 | binds | TUBG1 (from UniProt P23258 1-451)
49 | binds | UBAP2L (from UniProt Q14157 1-1087)

Continued, substance first:

Row | Substance | binding
50 | ARHGEF11 (from UniProt O15085 1-1522) | binds
51 | ASCC1 (from UniProt Q8N9N2 1-400) | binds
52 | ATR (from UniProt Q13535 1-2644) | binds
53 | BCLAF1 (from UniProt Q9NYF8 1-920) | binds
54 | CDK5RAP2 (from UniProt Q96SN8 1-1893) | binds
55 | CENTG3 (from UniProt Q96P47 1-875) | binds
56 | DDX21 (from UniProt Q9NR30 1-783) | binds
57 | DDX23 (from UniProt Q9BUQ8 1-820) | binds
58 | DDX41 (from UniProt Q9UJV9 1-622) | binds
59 | DHX15 (from UniProt O43143 1-795) | binds
60 | DOCK6 (from UniProt Q96HP0 1-2047) | binds
61 | EIF3H (from UniProt O15372 1-352) | binds
62 | EIF3I (from UniProt Q13347 1-325) | binds
63 | EXOSC1 (from UniProt Q9Y3B2 1-195) | binds
64 | EXOSC2 (from UniProt Q13868 1-293) | binds
65 | EXOSC6 (from UniProt Q5RKV6 1-272) | binds
66 | FOCAD (from UniProt Q5VW36 1-1801) | binds
67 | FXR2 (from UniProt P51116 1-673) | binds
68 | IFT140 (from UniProt Q96RY7 1-1462) | binds
69 | INTS4 (from UniProt Q96HW7 1-963) | binds
70 | INTS6 (from UniProt Q9UL03 1-887) | binds
71 | INTS7 (from UniProt Q9NVH2 1-962) | binds

Row | Substance | binding
72 | INTS8 (from UniProt Q75QN2 1-995) | binds
73 | INTS10 (from UniProt Q9NVR2 1-710) | binds
74 | KIF14 (from UniProt Q15058 1-1648) | binds
75 | MICALL2 (from UniProt Q8IY33 1-904) | binds
76 | MYO6 (from UniProt Q9UM54 1-1294) | binds
77 | NF1 (from UniProt P21359 1-2839) | binds
78 | RPA1 (from UniProt P27694 1-616) | binds
79 | RPA2 (from UniProt P15927 1-270) | binds
80 | SACS (from UniProt Q9NZJ4 1-4579) | binds
81 | SBF1 (from UniProt O95248 1-1868) | binds
82 | SF3B1 (from UniProt O75533 1-1304) | binds
83 | SMCHD1 (from UniProt A6NHR9 1-2005) | binds
84 | SNX3 (from UniProt O60493 1-162) | binds
85 | SRSF1 (from UniProt Q07955 1-248) | binds
86 | TCF4 (from UniProt P15884 1-667) | binds
87 | TLK2 (from UniProt Q86UE8 1-772) | binds
88 | TPM1 (from UniProt P09493 1-284) | binds
89 | TRIM25 (from UniProt Q14258 1-630) | binds
90 | TTC37 (from UniProt Q6PGP7 1-1564) | binds
91 | U2AF1L5 (human (endogenous in SH-SY5Y)) | binds
92 | U2SURP (from UniProt O15042 1-1029) | binds
